These are yes or no findings as the source states them, for the method shown. Binding seen in cells or lysates may run through a third protein. Some results given as binding are weak or reduced against the parent protein; the word gives no strength.
Legend:
[1] = target: PERIOD (PER) protein, Drosophila, expressed in S2 cells from hs-per (Drosophila) (UniProt P07663); assay: co-immunoprecipitation with anti-GFP antibodies from S2 cells, PER detected by Western analysis (FIG. 13B-13C)
[2] = target: PERIOD (PER) protein, Drosophila, expressed in S2 cells from hs-per (Drosophila) (UniProt P07663); assay: co-immunoprecipitation with anti-GFP antibodies from S2 cell extracts, PER detected by Western analysis
[3] = target: GST-PER 1-365 fusion protein (Drosophila) (UniProt P07663); assay: GST pull-down, 35S-labeled in vitro translated DBT, SDS-PAGE and autoradiography (FIG. 13A)
[4] = target: PERIOD (PER) protein, Drosophila, expressed in S2 cells from hs-per (Drosophila) (UniProt P07663); assay: summary of the GST pull-down and of the co-immunoprecipitation from S2 cells
[5] = target: GST-PER 1-365 fusion protein (Drosophila) (UniProt P07663); assay: GST pull-down on glutathione agarose beads, 35S-labeled in vitro translated DBT, SDS-PAGE and autoradiography
[6] = target: GST-PER 1-640 fusion protein (Drosophila) (UniProt P07663); assay: as above

Amino acid sequences for entries named in this document (tags omitted). A change or cut given only in a name is not applied to a line headed by its entry.
UniProt O76324: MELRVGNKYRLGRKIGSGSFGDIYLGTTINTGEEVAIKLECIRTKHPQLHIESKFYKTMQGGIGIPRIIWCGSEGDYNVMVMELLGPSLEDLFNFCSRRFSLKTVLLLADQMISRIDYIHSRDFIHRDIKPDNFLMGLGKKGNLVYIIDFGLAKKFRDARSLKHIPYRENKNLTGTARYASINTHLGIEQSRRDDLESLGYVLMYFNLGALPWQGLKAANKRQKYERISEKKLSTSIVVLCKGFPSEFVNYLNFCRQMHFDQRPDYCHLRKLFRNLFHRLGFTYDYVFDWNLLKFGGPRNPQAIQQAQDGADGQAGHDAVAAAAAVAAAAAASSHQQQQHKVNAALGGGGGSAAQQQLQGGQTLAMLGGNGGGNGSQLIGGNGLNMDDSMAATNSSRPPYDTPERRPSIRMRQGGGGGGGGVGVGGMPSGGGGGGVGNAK

Measured: binding

Green Fluorescent Protein (GFP)-DBT fusion protein expressed in S2 Drosophila cells (from UniProt O76324 1-440)
binds: [1] | [2]

DOUBLETIME protein (DBT), Drosophila, in vitro translated from dbt cDNA P12, 35S-labeled (from UniProt O76324 1-440) (enzyme)
binds: [3] | [4] | [5] | [6]
